This passage reports IC50 results from PubChem BioAssay AID504322 (Emory University Molecular Libraries Screening Center, 2011).

Active and inactive are the calls of the source. How the calls were made is not given here.

This assay deals with CHOP reporter cell assay, percent of control. Kind of assay: CHOP reporter inhibitor potency, dose response, cell-based (AID 504322).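 Further: CHO cells carrying a CHOP reporter stimulated with tunicamycin to induce ER stress; potency is for inhibition of the stress-induced reporter signal.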
With `COc1cc(CN2CCc3ccccc3C2)ccc1O`, the IC50 is inactive: > 10 µM.
Next, `CC(C)(C)C1CCC2(CC1)C(C#N)=C(SCC(=O)Nc1ccccc1)NC(=O)C2C#N` (stereo not given): “inactive”; `Nc1nonc1-n1nnc(C(=O)N/N=C/c2ccc(OCc3ccc(F)cc3)cc2)c1COc1ccccc1`: “inactive”.
For the compound `CCc1ccc(Oc2coc3cc(OCC(=O)Nc4cc(C)ccc4C)ccc3c2=O)cc1`, the IC50 result was “inactive”.
Under `COc1ccc2[nH]c3c(C)c4ccncc4c(C)c3c2c1` stands “inactive”.
